# Reference: the supplement of paper PMC8728848
# The list shows a part of the results.
# B1: PX14343F-bfa-562-20-562 (Bacteroides fragilis) (protein)
# chain: CDDFLDSFPQDTVTNENFWKSKEDADKVLVDIYASLLPKDAIFFDEAMSDNAYLVWDWWGGAQQVANGSYTTSGEIPTNRWNGSYEVIRKCWFLLEGIEKIEDISEQDKNKIIGETYFMLAYNYYVLTSYFGDVPLVTKTLAIPESKQLVRTPKAEVVDYAINKLKEAAVMLEGLSQEKGRVTADACRFLIARMYLYNGDYSNVLETVKLLEGKYQLYREGDTPYEDLFSGVAENSCEVILSVVCDKRVGEIYTSHGGNGIMLLKGITGEDPYRGVTPSGSLVDAYPMADGRLIHEAGSSYDPKKPYEGRDPRFYQSIVYPTGQIKYLDVETGTVKERLYDPEDPTTVPEHQYNYSQPSATGYMWNKYIDYSVYAMNSVWDCTNDIIVFRYADVLLMKAEALLQTKGESAKEEVCNLIDQLRDRCSCGRVHRENYNSKDELMELLKNERRIELANEGLRYMDLIRWKDAEKNTIVTGVGLTGQMYGAYMRKDGVGKDDKTVDVDNTPRRYIETRYFNASKGYLFPIPQKERDLNPNLTQNPNW
# Columns and labels:
# Test in all cases: glycan array binding signal (z-score within array); higher = stronger binding
# Conditions in all cases: glycan notation: IUPAC condensed, linker removed
# Neu5Ac(a2-8)Neu5Ac = biological target: Neu5Ac(a2-8)Neu5Ac
# How it was run: (§1)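 Glycan array data were curated from 3228 arrays in the Consortium for Functional Glycomics database and kept only where the protein sequence was available. Glycan names were converted to IUPAC-condensed notation, and columns mapping to the same glycan were averaged. The binding signal is a within-array Z-score, averaged across arrays of the same protein sequence at different concentrations or buffers and across linkers. Negative Z-scores can be read as non-binding.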
# [1] = biological target: Neu5Ac(a2-8)Neu5Ac(a2-3)Gal(b1-3)GalNAc(b1-4)[Neu5Ac(a2-3)]Gal(b1-4)Glc
# How it was run: as §1
# [2] = biological target: Neu5Ac(a2-8)Neu5Ac(a2-3)Gal(b1-3)GalNAc(b1-4)[Neu5Ac(a2-8)Neu5Ac(a2-3)]Gal(b1-4)Glc
# How it was run: as §1
# [3] = biological target: Neu5Ac(a2-8)Neu5Ac(a2-3)Gal(b1-4)Glc
# How it was run: as §1
# [4] = biological target: Neu5Ac(a2-8)Neu5Ac(a2-3)Gal(b1-4)GlcNAc
# How it was run: as §1
# [5] = biological target: Neu5Ac(a2-8)Neu5Ac(a2-3)[Gal(b1-3)GalNAc(b1-4)]Gal(b1-4)Glc
# How it was run: as §1
# [6] = biological target: Neu5Ac(a2-8)Neu5Ac(a2-3)[GalNAc(b1-4)]Gal(b1-4)Glc
# How it was run: as §1
# [7] = biological target: Neu5Ac(a2-8)Neu5Ac(a2-8)Neu5Ac
# How it was run: as §1
# [8] = biological target: Neu5Ac(a2-8)Neu5Ac(a2-8)Neu5Ac(a2-3)Gal(b1-4)Glc
# How it was run: as §1
# [9] = biological target: Neu5Ac(a2-8)Neu5Ac(a2-8)Neu5Ac(a2-3)[Gal(b1-3)GalNAc(b1-4)]Gal(b1-4)Glc
# How it was run: as §1
# [10] = biological target: Neu5Ac(a2-8)Neu5Ac(a2-8)Neu5Ac(a2-3)[GalNAc(b1-4)]Gal(b1-4)Glc
# How it was run: as §1
# [11] = biological target: Neu5Ac(a2-8)Neu5Ac(a2-8)Neu5Ac(a2-8)Neu5Ac(a2-3)[GalNAc(b1-4)]Gal(b1-4)Glc
# How it was run: as §1
# [12] = biological target: Neu5Ac(a2-8)Neu5Gc(a2-3)Gal(b1-4)GlcNAc
# How it was run: as §1
# [13] = biological target: Neu5Ac(b2-6)Gal(b1-4)GlcNAc
# How it was run: as §1
# Neu5Ac(b2-6)GalNAc = biological target: Neu5Ac(b2-6)GalNAc
# How it was run: as §1
# [14] = biological target: Neu5Ac9Ac(a2-3)Gal(b1-3)GlcNAc
# How it was run: as §1
# [15] = biological target: Neu5Ac9Ac(a2-3)Gal(b1-4)GlcNAc
# How it was run: as §1
# [16] = biological target: Neu5Ac9Ac(a2-6)Gal(b1-4)GlcNAc
# How it was run: as §1
# [17] = biological target: Neu5Gc(a2-3)Gal(b1-3)GlcNAc
# How it was run: as §1
# [18] = biological target: Neu5Gc(a2-3)Gal(b1-3)[Fuc(a1-4)]GlcNAc
# How it was run: as §1
# Neu5Gc(a2-3)Gal(b1-4)Glc = biological target: Neu5Gc(a2-3)Gal(b1-4)Glc
# How it was run: as §1
# [19] = biological target: Neu5Gc(a2-3)Gal(b1-4)GlcNAc
# How it was run: as §1
# [20] = biological target: Neu5Gc(a2-3)Gal(b1-4)GlcNAc(b1-3)Gal(b1-4)GlcNAc(b1-2)Man(a1-3)[Neu5Gc(a2-3)Gal(b1-4)GlcNAc(b1-3)Gal(b1-4)GlcNAc(b1-2)Man(a1-6)]Man(b1-4)GlcNAc(b1-4)GlcNAc
# How it was run: as §1
# [21] = biological target: Neu5Gc(a2-3)Gal(b1-4)[Fuc(a1-3)]GlcNAc
# How it was run: as §1
# [22] = biological target: Neu5Gc(a2-6)Gal(b1-4)GlcNAc
# How it was run: as §1
# Neu5Gc(a2-6)GalNAc = biological target: Neu5Gc(a2-6)GalNAc
# How it was run: as §1
# [23] = biological target: Neu5Gc(a2-8)Neu5Ac(a2-3)Gal(b1-4)GlcNAc
# How it was run: as §1
# [24] = biological target: Neu5Gc(a2-8)Neu5Gc(a2-3)Gal(b1-4)GlcNAc
# How it was run: as §1
# [25] = biological target: Neu5Gc(a2-8)Neu5Gc(a2-3)Gal(b1-4)GlcNAc(b1-3)Gal(b1-4)GlcNAc
# How it was run: as §1
# [26] = biological target: Neu5Gc(a2-8)Neu5Gc(a2-6)Gal(b1-4)GlcNAc
# How it was run: as §1
# [27] = biological target: Neu5Gc(b2-6)Gal(b1-4)GlcNAc
# How it was run: as §1
binder,measurement,setting,value
B1,glycan array binding signal (z-score),Neu5Ac(a2-8)Neu5Ac,-0.003
same,glycan array binding signal (z-score),[1],0.302
same,glycan array binding signal (z-score),[2],-0.512
same,glycan array binding signal (z-score),[3],-0.774
same,glycan array binding signal (z-score),[4],-0.606
same,glycan array binding signal (z-score),[5],-0.69
same,glycan array binding signal (z-score),[6],1.74
same,glycan array binding signal (z-score),[7],0.358
same,glycan array binding signal (z-score),[8],0.121
same,glycan array binding signal (z-score),[9],-0.257
same,glycan array binding signal (z-score),[10],0.766
same,glycan array binding signal (z-score),[11],0.09
same,glycan array binding signal (z-score),[12],19.1
same,glycan array binding signal (z-score),[13],-0.671
same,glycan array binding signal (z-score),Neu5Ac(b2-6)GalNAc,-0.688
same,glycan array binding signal (z-score),[14],-0.892
same,glycan array binding signal (z-score),[15],-0.067
same,glycan array binding signal (z-score),[16],-0.756
same,glycan array binding signal (z-score),[17],0.39
same,glycan array binding signal (z-score),[18],-0.055
same,glycan array binding signal (z-score),Neu5Gc(a2-3)Gal(b1-4)Glc,0.416
same,glycan array binding signal (z-score),[19],0.613
same,glycan array binding signal (z-score),[20],0.242
same,glycan array binding signal (z-score),[21],-0.332
same,glycan array binding signal (z-score),[22],-0.418
same,glycan array binding signal (z-score),Neu5Gc(a2-6)GalNAc,-0.551
same,glycan array binding signal (z-score),[23],-0.397
same,glycan array binding signal (z-score),[24],0.033
same,glycan array binding signal (z-score),[25],0.2
same,glycan array binding signal (z-score),[26],-0.938
same,glycan array binding signal (z-score),[27],0.514

# Some of the entries so far, tab-delimited:
binder	measurement	setting	value
B1	glycan array binding signal (z-score)	[4]	-0.606
same	glycan array binding signal (z-score)	[12]	19.1
